# In publication PMC2266781:
# Protein sequences, listed by entry. Tags and fused reporters are not part of them.
# UniProt P09874: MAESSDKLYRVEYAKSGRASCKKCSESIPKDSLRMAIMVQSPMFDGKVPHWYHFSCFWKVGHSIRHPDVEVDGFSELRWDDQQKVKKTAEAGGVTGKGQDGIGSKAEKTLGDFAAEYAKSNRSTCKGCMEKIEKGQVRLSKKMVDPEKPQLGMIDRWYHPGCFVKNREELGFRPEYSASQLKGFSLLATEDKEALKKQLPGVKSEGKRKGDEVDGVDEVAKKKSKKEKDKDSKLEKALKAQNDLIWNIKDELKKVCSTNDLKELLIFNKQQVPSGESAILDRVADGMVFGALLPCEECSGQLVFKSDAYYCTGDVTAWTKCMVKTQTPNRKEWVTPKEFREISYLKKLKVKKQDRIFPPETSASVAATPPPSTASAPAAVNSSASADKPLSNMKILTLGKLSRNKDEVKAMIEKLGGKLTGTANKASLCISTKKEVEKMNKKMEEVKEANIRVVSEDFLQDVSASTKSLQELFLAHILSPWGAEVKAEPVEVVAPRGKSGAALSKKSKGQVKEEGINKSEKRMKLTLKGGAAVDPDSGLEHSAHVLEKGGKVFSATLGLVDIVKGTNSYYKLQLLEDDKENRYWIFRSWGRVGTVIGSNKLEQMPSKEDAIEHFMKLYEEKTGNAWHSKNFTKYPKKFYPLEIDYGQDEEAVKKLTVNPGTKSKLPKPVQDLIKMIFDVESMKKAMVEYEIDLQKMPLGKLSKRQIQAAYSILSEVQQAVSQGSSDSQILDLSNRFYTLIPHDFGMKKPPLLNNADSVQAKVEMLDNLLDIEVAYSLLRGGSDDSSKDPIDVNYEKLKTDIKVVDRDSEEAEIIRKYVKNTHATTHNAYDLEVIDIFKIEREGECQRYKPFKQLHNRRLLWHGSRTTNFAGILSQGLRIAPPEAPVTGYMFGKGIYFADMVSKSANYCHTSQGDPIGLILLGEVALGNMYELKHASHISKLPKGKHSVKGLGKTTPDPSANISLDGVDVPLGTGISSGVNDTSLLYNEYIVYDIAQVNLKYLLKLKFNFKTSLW
# UniProt P35250: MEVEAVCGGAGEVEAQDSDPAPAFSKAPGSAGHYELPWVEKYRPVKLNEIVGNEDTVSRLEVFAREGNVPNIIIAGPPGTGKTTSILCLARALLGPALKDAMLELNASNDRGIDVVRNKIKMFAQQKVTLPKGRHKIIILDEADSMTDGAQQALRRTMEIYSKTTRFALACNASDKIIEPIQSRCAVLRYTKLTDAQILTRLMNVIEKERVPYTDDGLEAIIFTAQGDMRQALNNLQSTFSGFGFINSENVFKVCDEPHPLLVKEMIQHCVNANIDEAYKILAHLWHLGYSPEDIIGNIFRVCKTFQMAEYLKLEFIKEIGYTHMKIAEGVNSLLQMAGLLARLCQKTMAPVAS
# UniProt P35249: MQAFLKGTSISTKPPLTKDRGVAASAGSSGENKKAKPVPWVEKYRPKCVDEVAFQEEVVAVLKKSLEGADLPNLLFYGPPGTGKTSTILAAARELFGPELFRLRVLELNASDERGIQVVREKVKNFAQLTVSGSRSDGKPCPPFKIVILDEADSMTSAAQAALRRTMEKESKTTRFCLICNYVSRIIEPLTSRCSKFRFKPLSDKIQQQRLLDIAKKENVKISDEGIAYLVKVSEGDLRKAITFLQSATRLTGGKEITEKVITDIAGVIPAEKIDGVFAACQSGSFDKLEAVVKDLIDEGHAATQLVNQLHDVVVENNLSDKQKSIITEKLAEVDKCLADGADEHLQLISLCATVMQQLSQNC
# UniProt P40938: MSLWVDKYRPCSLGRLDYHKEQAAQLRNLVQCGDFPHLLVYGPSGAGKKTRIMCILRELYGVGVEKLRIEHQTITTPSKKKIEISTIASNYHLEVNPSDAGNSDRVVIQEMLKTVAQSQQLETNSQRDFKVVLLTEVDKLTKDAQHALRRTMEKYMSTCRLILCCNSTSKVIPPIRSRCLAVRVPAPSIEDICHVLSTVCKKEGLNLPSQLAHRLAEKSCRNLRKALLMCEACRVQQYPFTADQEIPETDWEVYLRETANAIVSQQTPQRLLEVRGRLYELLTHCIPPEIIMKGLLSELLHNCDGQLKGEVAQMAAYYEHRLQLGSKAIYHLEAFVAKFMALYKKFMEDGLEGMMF
# UniProt P40937: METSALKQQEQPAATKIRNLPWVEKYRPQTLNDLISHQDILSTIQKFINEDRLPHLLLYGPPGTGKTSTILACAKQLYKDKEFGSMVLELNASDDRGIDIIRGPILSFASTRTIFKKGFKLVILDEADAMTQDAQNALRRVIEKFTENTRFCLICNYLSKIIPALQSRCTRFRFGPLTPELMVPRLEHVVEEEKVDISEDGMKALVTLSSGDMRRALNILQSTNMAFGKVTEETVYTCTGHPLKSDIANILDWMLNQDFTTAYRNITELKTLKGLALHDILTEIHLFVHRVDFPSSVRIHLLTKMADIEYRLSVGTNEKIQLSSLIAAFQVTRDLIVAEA
# B1: Splice Isoform 1 of Activator 1 140 kDa subunit (protein, UniProt P35251 1-1148)
# chain: MDIRKFFGVIPSGKKLVSETVKKNEKTKSDEETLKAKKGIKEIKVNSSRKEDDFKQKQPSKKKRIIYDSDSESEETLQVKNAKKPPEKLPVSSKPGKISRQDPVTYISETDEEDDFMCKKAASKSKENGRSTNSHLGTSNMKKNEENTKTKNKPLSPIKLTPTSVLDYFGTGSVQRSNKKMVASKRKELSQNTDESGLNDEAIAKQLQLDEDAELERQLHEDEEFARTLAMLDEEPKTKKARKDTEAGETFSSVQANLSKAEKHKYPHKVKTAQVSDERKSYSPRKQSKYESSKESQQHSKSSADKIGEVSSPKASSKLAIMKRKEESSYKEIEPVASKRKENAIKLKGETKTPKKTKSSPAKKESVSPEDSEKKRTNYQAYRSYLNREGPKALGSKEIPKGAENCLEGLIFVITGVLESIERDEAKSLIERYGGKVTGNVSKKTNYLVMGRDSGQSKSDKAAALGTKIIDEDGLLNLIRTMPGKKSKYEIAVETEMKKESKLERTPQKNVQGKRKISPSKKESESKKSRPTSKRDSLAKTIKKETDVFWKSLDFKEQVAEETSGDSKARNLADDSSENKVENLLWVDKYKPTSLKTIIGQQGDQSCANKLLRWLRNWQKSSSEDKKHAAKFGKFSGKDDGSSFKAALLSGPPGVGKTTTASLVCQELGYSYVELNASDTRSKSSLKAIVAESLNNTSIKGFYSNGAASSVSTKHALIMDEVDGMAGNEDRGGIQELIGLIKHTKIPIICMCNDRNHPKIRSLVHYCFDLRFQRPRVEQIKGAMMSIAFKEGLKIPPPAMNEIILGANQDIRQVLHNLSMWCARSKALTYDQAKADSHRAKKDIKMGPFDVARKVFAAGEETAHMSLVDKSDLFFHDYSIAPLFVQENYIHVKPVAAGGDMKKHLMLLSRAADSICDGDLVDSQIRSKQNWSLLPAQAIYASVLPGELMRGYMTQFPTFPSWLGKHSSTGKHDRIVQDLALHMSLRTYSSKRTVNMDYLSLLRDALVQPLTSQGVDGVQDVVALMDTYYLMKEDFENIMEISSWGGKPSPFSKLDPKVKAAFTRAYNKEAHLTPYSLQAIKASRHSTSPSLDSEYNEELNEDDSQSDEKDQDAIETDAMIKKKTKSSKPSKPEKDKEPRKGKGKSSKK
# Biological target: Poly [ADP-ribose] polymerase 1 (human (endogenous in HeLa)) (UniProt P09874)
# Assay: affinity purification with mass spectrometry; endogenous PARP-1 immunoprecipitated from HeLa cell lysate with monoclonal antibody F1-23 on protein G magnetic beads (normal mouse IgG as control), 2 hours at 4°C; lysis buffer 175 mM KPO4 pH 8.0, 150 mM NaCl, 1% NP-40, 1 mM DTT; eluate separated by SDS-PAGE, in-gel trypsin digest, LC-MS/MS; 5 independent immunoprecipitations
row,binding,Molecule
1,binds,Splice Isoform 1 of Activator 1 40 kDa subunit (from UniProt P35250 1-354)
2,binds,Activator 1 37 kDa subunit (from UniProt P35249 1-363)
3,binds,Activator 1 38 kDa subunit (from UniProt P40938 1-356)
4,binds,Activator 1 36 kDa subunit (from UniProt P40937 1-340)
5,binds,B1

# These are yes or no findings as the source states them, for the method shown. Binding seen in cells or lysates may run through a third protein. Here binding means that the protein was enriched with, or labelled near, the bait; the list need not be complete.
